The results in this text go back to article PMC3847324, “Jun dimerization protein 2 is a critical component of the Nrf2/MafK complex regulating the response to ROS homeostasis”.

The chains behind the UniProt entries cited, without tags or fusion partners.
UniProt O60675: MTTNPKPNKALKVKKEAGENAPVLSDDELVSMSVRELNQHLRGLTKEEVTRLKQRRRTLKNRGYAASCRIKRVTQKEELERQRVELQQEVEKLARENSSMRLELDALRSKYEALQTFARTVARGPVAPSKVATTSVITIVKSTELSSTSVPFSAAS

Results are given in words; binding and its absence hold for the method and conditions named. For part of these data: Binding seen in cells or lysates may run through a third protein. Some binding calls cover weakened binding; strength is not graded here. For part of these data: Sequences can lack the tags named with a protein.

The target of one test is T1, FLAG–Jdp2 (mouse) (UniProt P97875).
T1 sequence: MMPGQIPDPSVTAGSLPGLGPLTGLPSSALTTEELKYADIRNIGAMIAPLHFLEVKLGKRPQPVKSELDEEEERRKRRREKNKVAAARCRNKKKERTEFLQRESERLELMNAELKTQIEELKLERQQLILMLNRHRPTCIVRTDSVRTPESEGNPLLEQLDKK
The test is described as follows: co-IP; nuclear fractions of 293T clones transformed with FLAG-tagged Jdp2, Nrf2 or MafK; immunoprecipitated with anti-FLAG M2 and protein A/G-Sepharose; western blot with antibodies against Nrf2, MafK and JDP2. For orientation: In western blotting, separated proteins are transferred to a membrane and probed.

The target in another test is T2, FLAG–Nrf2 (UniProt Q60795).
T2 sequence: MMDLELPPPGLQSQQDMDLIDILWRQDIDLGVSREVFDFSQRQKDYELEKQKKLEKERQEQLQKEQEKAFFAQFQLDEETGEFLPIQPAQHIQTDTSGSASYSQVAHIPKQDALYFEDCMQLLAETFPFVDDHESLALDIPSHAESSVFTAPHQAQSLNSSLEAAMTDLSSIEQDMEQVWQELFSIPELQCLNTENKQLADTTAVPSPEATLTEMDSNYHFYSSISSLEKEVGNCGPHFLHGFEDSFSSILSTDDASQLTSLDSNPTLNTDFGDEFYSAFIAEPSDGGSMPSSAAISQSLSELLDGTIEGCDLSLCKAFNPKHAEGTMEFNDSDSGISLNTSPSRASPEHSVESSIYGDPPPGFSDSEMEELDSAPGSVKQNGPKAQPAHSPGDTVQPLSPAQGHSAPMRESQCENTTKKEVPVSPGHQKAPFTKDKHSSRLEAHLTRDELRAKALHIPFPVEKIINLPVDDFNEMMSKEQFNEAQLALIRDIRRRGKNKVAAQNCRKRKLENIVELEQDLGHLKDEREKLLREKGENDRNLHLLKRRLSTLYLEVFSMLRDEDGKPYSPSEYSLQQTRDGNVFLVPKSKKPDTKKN
The test is described as above.

A further test has as its target T3, GST-JDP2 (mouse, UniProt P97875 1-163).
T3 sequence: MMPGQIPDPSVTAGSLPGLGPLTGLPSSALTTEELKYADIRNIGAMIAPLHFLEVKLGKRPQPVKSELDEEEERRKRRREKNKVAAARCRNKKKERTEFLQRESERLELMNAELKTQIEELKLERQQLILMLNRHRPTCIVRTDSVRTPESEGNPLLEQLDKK
Kind of test: pull-down; 10 μg GST fusion protein on 10 μl glutathione-Sepharose beads incubated with 5 μl nonradioactive in vitro-translated protein in 500 μl binding buffer, 2 h at 4 °C; washed five times with 100 mM NaCl, 20 mM HEPES pH 7.9, 0.1% NP-40, 5 mM MgCl2, 0.5 mM PMSF; bound protein detected by western blotting; only the target purified.

Test [1] concerns the target T4, in vitro-translated JDP2 (mouse) (UniProt P97875).
T4 sequence: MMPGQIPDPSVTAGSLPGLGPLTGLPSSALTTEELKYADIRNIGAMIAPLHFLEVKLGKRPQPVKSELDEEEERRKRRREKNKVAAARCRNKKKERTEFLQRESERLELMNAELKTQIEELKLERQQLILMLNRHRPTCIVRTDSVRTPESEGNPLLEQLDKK
Kind of test: native gel or EMSA; 10 ng in vitro-translated proteins incubated at 25 °C for 30 min with labeled human NQO1–ARE oligonucleotide; 5% nondenaturing polyacrylamide gel at 4 °C in 0.5 x Tris-borate/EDTA; complex seen on DNA. For orientation: Mobility shift assays separate free from complexed probe on a gel.

For the next test, the target named is T5, GST–Nrf2 (UniProt Q60795).
T5 sequence: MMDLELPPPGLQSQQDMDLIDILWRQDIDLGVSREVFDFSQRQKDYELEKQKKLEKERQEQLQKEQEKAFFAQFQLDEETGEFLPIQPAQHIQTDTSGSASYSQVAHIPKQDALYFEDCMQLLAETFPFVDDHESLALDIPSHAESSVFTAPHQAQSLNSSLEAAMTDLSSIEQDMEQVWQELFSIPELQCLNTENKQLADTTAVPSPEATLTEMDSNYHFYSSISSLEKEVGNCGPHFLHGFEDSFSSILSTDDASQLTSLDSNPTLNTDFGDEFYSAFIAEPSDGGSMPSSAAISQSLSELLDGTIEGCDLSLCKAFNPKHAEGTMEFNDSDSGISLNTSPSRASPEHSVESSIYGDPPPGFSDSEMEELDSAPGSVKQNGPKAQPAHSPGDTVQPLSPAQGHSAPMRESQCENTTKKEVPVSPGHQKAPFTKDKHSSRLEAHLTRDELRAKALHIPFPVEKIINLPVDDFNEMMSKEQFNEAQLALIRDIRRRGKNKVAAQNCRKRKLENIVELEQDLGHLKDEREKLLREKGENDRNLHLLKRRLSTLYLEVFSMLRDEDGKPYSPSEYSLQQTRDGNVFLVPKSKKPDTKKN
The test is described as follows: pull-down; 10 μg GST fusion protein on 10 μl glutathione-Sepharose beads incubated with 5 μl nonradioactive in vitro-translated protein in 500 μl binding buffer, 2 h at 4 °C; washed five times with 100 mM NaCl, 20 mM HEPES pH 7.9, 0.1% NP-40, 5 mM MgCl2, 0.5 mM PMSF; bound protein detected by western blotting; only the target purified.

Regarding “MafK detected in anti-FLAG immunoprecipitates of 293T nuclear extracts (from UniProt O60675 1-156)”, the binding result with FLAG–Jdp2 (mouse) and in the test with FLAG–Nrf2 was “binds” in each case.

B1: in vitro-translated Nrf2 (protein, UniProt Q60795 1-597)
chain: MMDLELPPPGLQSQQDMDLIDILWRQDIDLGVSREVFDFSQRQKDYELEKQKKLEKERQEQLQKEQEKAFFAQFQLDEETGEFLPIQPAQHIQTDTSGSASYSQVAHIPKQDALYFEDCMQLLAETFPFVDDHESLALDIPSHAESSVFTAPHQAQSLNSSLEAAMTDLSSIEQDMEQVWQELFSIPELQCLNTENKQLADTTAVPSPEATLTEMDSNYHFYSSISSLEKEVGNCGPHFLHGFEDSFSSILSTDDASQLTSLDSNPTLNTDFGDEFYSAFIAEPSDGGSMPSSAAISQSLSELLDGTIEGCDLSLCKAFNPKHAEGTMEFNDSDSGISLNTSPSRASPEHSVESSIYGDPPPGFSDSEMEELDSAPGSVKQNGPKAQPAHSPGDTVQPLSPAQGHSAPMRESQCENTTKKEVPVSPGHQKAPFTKDKHSSRLEAHLTRDELRAKALHIPFPVEKIINLPVDDFNEMMSKEQFNEAQLALIRDIRRRGKNKVAAQNCRKRKLENIVELEQDLGHLKDEREKLLREKGENDRNLHLLKRRLSTLYLEVFSMLRDEDGKPYSPSEYSLQQTRDGNVFLVPKSKKPDTKKN
As for B1, the binding entry (in the test with GST-JDP2; in test [1]) was “binds” throughout.

B2: JDP2 detected in anti-FLAG immunoprecipitates of 293T nuclear extracts (protein, UniProt Q8WYK2 1-163)
chain: MMPGQIPDPSVTTGSLPGLGPLTGLPSSALTVEELKYADIRNLGAMIAPLHFLEVKLGKRPQPVKSELDEEEERRKRRREKNKVAAARCRNKKKERTEFLQRESERLELMNAELKTQIEELKQERQQLILMLNRHRPTCIVRTDSVKTPESEGNPLLEQLEKK
As to B2, the binding entry with FLAG–Nrf2 is “binds”.

B3: in vitro-translated JDP2 (protein, UniProt P97875 1-163)
chain: MMPGQIPDPSVTAGSLPGLGPLTGLPSSALTTEELKYADIRNIGAMIAPLHFLEVKLGKRPQPVKSELDEEEERRKRRREKNKVAAARCRNKKKERTEFLQRESERLELMNAELKTQIEELKLERQQLILMLNRHRPTCIVRTDSVRTPESEGNPLLEQLDKK
Take B3: the binding entry in the test with GST–Nrf2 is recorded as “binds”.
